Data from publication PMC3646893, “Solution Structure and Rpn1 Interaction of the UBL Domain of Human RNA Polymerase II C-Terminal Domain Phosphatase” (PLoS ONE, 2013).
Results are given in words; binding and its absence hold for the method and conditions named. For some assays here: Binding seen in cells or lysates may run through a third protein. Some binding calls cover weakened binding; strength is not graded here. Sequences can lack the tags named with a protein.

The chains behind the UniProt entries cited, without tags or fusion partners. Where a name states a change or a piece, a line headed by the entry shows the natural chain unless it says otherwise.
UniProt Q13200: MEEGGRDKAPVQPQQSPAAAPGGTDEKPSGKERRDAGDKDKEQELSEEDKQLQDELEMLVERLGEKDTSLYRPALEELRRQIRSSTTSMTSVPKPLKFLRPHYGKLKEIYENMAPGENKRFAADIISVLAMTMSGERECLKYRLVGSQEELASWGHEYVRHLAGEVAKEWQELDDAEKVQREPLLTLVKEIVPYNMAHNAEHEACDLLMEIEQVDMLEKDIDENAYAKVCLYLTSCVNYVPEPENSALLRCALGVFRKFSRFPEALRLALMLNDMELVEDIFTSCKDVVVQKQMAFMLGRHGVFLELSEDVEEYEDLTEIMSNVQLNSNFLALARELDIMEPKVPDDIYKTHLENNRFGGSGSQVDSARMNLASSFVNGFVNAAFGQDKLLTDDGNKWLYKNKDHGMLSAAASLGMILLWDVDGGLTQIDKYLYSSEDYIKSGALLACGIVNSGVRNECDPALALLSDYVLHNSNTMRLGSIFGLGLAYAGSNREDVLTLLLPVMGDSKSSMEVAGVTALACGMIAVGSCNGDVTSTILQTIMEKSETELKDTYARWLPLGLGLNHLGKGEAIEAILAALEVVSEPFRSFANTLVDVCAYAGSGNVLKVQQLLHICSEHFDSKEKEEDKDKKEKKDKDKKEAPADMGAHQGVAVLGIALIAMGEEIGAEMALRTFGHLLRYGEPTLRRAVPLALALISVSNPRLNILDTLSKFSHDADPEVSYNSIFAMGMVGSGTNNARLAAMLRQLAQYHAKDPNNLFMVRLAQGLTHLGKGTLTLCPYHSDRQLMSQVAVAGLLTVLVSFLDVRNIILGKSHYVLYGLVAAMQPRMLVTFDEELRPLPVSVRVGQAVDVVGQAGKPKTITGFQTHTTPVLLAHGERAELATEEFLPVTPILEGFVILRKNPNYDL

B1: HA-tagged human ubiquitin-like domain-containing C-terminal domain phosphatase (hUBLCP1), from pYR-HA-UBLCP1 (protein, UniProt Q8WVY7 1-318)
chain: MALPIIVKWGGQEYSVTTLSEDDTVLDLKQFLKTLTGVLPERQKLLGLKVKGKPAENDVKLGALKLKPNTKIMMMGTREESLEDVLGPPPDNDDVVNDFDIEDEVVEVENREENLLKISRRVKEYKVEILNPPREGKKLLVLDVDYTLFDHRSCAETGVELMRPYLHEFLTSAYEDYDIVIWSATNMKWIEAKMKELGVSTNANYKITFMLDSAAMITVHTPRRGLIDVKPLGVIWGKFSEFYSKKNTIMFDDIGRNFLMNPQNGLKIRPFMKAHLNRDKDKELLKLTQYLKEIAKLDDFLDLNHKYWERYLSKKQGQ

Experiments:
[1] = molecular target: T1, GST-fused UBL domain of hUBLCP1 (UBLCP1 1-81) (human) (UniProt Q8WVY7); assay: pull-down; GST-fused UBLCP1 1-81 on glutathione-Sepharose 4B; TRX-His6-fused Rpn1 fragments loaded, 1 h at 25°C; eluted with 10 mM reduced glutathione; SDS-PAGE; both purified
T1 sequence: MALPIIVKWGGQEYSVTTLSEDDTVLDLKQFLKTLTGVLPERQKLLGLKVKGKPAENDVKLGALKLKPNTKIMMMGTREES

[2] = molecular target: FLAG-tagged Rpn1 of the regulatory particle of the 26 S proteasome, from pYR-FLAG-RPN1 (human) (UniProt Q13200); assay: co-IP; lysate of transfected HeLa Tet-Off-derived (EBNA-1) cells; anti-FLAG resin (FLAG-RPN1 precipitated), 0.1% NP-40, 4 h at 4°C; immunoblot with HA and FLAG antibodies

Molecule | binding [1] | binding [2]
TRX-His6-fused Rpn1 regulatory subunit 2 (Rpn1 640-772) (from UniProt Q13200 640-772) (domain or fragment) | no binding | –
B1 | – | binds
